Measurements from paper PMC6945596.
Results are given in words; binding and its absence hold for the method and conditions named. Binding seen in cells or lysates may run through a third protein. Here binding means that the protein was enriched with, or labelled near, the bait; the list need not be complete.

Protein sequences, listed by entry. Tags and fused reporters are not part of them.
UniProt Q80SW1: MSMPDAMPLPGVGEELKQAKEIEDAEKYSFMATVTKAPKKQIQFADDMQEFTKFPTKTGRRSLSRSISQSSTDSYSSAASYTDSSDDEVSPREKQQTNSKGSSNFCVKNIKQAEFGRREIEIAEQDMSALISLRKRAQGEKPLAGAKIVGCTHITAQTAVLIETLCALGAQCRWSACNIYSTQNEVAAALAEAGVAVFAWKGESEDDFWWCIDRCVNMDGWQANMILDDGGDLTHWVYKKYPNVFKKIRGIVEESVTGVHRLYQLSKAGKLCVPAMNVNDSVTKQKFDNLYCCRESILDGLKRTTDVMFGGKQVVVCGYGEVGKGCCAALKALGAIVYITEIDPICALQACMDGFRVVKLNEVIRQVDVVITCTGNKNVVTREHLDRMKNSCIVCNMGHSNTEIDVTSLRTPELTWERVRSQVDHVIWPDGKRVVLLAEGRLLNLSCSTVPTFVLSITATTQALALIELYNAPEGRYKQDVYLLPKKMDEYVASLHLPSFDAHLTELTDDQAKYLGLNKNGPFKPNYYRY

Target: T1, sodium-dependent chloride/bicarbonate exchanger Ncbe (mouse (endogenous in choroid plexus)) (UniProt Q5DTL9)
T1 sequence: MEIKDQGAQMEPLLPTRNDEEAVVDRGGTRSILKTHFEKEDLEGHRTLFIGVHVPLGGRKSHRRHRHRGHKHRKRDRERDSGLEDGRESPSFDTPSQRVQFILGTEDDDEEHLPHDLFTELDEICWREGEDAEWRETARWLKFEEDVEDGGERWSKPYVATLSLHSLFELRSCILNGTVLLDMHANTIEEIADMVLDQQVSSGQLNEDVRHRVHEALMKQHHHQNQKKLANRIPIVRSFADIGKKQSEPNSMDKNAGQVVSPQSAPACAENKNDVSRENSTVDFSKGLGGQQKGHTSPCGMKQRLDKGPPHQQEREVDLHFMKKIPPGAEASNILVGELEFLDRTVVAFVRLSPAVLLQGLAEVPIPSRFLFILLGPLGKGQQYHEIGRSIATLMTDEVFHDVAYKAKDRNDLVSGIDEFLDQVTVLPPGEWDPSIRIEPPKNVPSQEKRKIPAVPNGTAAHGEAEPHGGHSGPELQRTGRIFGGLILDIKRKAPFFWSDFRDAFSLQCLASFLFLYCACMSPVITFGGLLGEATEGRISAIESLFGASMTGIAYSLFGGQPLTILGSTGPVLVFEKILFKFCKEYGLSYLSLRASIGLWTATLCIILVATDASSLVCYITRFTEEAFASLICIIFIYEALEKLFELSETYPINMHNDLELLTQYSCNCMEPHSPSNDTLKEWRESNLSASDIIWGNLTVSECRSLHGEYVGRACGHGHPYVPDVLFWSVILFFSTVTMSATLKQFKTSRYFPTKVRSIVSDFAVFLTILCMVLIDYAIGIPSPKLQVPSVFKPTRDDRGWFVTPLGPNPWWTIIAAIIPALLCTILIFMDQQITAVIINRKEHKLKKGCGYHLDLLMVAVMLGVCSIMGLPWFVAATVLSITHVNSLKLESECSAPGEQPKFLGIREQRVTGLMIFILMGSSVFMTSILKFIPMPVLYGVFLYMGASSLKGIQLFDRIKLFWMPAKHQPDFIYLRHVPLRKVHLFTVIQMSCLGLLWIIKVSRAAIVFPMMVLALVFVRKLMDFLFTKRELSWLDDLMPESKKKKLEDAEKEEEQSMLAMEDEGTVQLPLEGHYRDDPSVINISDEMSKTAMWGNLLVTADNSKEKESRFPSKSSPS
Experiment: affinity purification with mass spectrometry; mouse choroid plexus lysate (50 mM Tris-HCl pH 7.4, 150 mM NaCl, 0.25% Na-deoxycholate, 1% Triton X-100, 1 mM EDTA), ~150 ug lysate with 1 ug anti-Ncbe antibody, 4 °C 1 h, protein-A-agarose, washed three times, eluate processed for mass spectrometry

IP3R Binding protein released with Inositol 1,4,5-Trisphosphate (IRBIT) (from UniProt Q80SW1 1-530)
binding: binds
